Experimental data published in publication PMC12948281.
Results are given in words; binding and its absence hold for the method and conditions named. In cells and extracts the contact can be indirect. Some binding calls cover weakened binding; strength is not graded here.

Legend:
[1] = target: FLAG-FTH1 with the KFERQ-like motif QDIKK mutated to AAIKK (human) (UniProt P02794); test: co-IP; TS^CT cells transfected with FLAG-tagged FTH1 plasmids (WT or AAIKK) for 48 h, with or without testosterone (20 µM) for another 24 h; lysate precleared with protein A+G agarose, anti-FLAG M2 magnetic beads 1 h at room temperature, TBS washes; Western blot for endogenous Hsc70
[2] = target: wild-type (WT) FLAG-FTH1 (human) (UniProt P02794); test: as above

“heat shock cognate protein Hsc70 (encoded by HSPA8), endogenous in TS^CT cells (from UniProt P11142 1-646)” was tested, and the binding [1] was “binds” and the binding [2] was “binds”.
